According to publication PMC10778249:
Results are given in words; binding and its absence hold for the method and conditions named. In cells and extracts the contact can be indirect. Some entries that bind do so weakly or less than the wild type.

Protein sequences, listed by entry. Tags and fused reporters are not part of them. Lines headed by an entry give the natural chain unless they say otherwise; changes in a name come on top. Chains listed by the source or under a name are the forms on record and can include a tag or linker.
UniProt Q14790: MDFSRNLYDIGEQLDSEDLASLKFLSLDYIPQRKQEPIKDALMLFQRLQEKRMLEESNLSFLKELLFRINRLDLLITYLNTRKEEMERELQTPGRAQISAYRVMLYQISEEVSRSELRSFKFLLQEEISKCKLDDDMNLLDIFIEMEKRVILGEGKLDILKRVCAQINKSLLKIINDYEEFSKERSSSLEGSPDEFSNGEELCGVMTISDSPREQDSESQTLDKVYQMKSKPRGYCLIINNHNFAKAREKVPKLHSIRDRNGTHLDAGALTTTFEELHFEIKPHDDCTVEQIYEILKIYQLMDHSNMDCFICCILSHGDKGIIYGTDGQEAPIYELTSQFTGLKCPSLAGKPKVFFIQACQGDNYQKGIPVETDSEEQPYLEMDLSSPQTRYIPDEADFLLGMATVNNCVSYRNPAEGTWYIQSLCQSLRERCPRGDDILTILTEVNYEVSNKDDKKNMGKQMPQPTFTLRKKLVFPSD
CDK9 isoform p55 (P50750-2, form named): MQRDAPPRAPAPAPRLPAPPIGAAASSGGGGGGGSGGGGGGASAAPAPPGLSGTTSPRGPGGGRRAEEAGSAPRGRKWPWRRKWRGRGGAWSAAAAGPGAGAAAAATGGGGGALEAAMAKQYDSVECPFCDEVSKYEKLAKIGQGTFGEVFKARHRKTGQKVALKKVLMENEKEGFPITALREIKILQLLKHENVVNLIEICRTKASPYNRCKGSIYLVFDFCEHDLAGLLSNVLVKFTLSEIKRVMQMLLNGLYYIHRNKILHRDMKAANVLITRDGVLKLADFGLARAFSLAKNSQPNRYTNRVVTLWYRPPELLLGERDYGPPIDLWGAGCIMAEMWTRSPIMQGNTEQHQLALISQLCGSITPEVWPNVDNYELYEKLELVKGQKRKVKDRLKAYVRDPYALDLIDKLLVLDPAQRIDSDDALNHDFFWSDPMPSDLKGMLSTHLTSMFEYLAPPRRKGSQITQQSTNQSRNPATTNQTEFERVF

Biological target: Caspase-8 (human (endogenous in OVCAR-8)) (UniProt Q14790)
Experiment: co-IP; OVCAR-8 wt cells separated into cytosolic and nuclear fractions; anti-Caspase-8 co-IP; blotted for pCDK9, CDK9 and Cyclin T

binding: binds
Substance: CDK9 isoform p55 (from UniProt P50750-2 1-489) (enzyme)
